# Measurements as given in article PMC7850899, “Nutrient transceptors physically interact with the yeast S6/protein kinase B homolog, Sch9, a TOR kinase target” (Biochemical Journal, 2021).
# By UniProt entry, the sequences of proteins in these tests, tags left out. Where a name states a change or a piece, a line headed by the entry shows the natural chain unless it says otherwise.
# UniProt P19145: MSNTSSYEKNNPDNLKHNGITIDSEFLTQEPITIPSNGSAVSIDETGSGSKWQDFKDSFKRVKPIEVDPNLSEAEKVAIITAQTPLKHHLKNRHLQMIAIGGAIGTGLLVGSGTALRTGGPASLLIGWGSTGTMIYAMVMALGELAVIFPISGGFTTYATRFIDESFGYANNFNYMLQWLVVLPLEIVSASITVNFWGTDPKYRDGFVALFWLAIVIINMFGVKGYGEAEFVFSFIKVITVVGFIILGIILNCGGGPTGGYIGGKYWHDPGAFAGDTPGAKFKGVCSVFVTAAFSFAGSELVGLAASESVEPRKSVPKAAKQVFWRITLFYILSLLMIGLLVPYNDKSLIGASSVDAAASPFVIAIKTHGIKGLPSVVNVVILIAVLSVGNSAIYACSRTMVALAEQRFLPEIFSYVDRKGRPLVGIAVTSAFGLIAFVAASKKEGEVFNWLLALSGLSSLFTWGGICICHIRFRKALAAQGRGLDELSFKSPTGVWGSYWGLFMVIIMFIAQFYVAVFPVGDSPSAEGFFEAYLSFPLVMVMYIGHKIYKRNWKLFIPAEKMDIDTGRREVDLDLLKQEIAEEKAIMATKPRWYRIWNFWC
# No constants are given. Whether binding was seen depends on the method and setting. Some entries that bind do so weakly or less than the wild type. Sequences can lack the tags named with a protein.
# T1: Gap1 peptide 222-236 with F231 replaced by D (substitution scan) (S. cerevisiae) (UniProt P19145)
# T1 sequence (peptide): GVKGYGEAEDVFSFI
# T2: Gap1 peptide 222-236 with F233 replaced by D (substitution scan) (S. cerevisiae) (UniProt P19145)
# T2 sequence (peptide): GVKGYGEAEFVDSFI
# T3: Gap1 peptide 222-236 with S234 replaced by C (substitution scan) (S. cerevisiae) (UniProt P19145)
# T3 sequence (peptide): GVKGYGEAEFVFCFI
# T4: Gap1 peptide 222-236 with S234 replaced by F (substitution scan) (S. cerevisiae) (UniProt P19145)
# T4 sequence (peptide): GVKGYGEAEFVFFFI
# T5: Gap1 peptide 222-236 with S234 replaced by I (substitution scan) (S. cerevisiae) (UniProt P19145)
# T5 sequence (peptide): GVKGYGEAEFVFIFI
# T6: Gap1 peptide 222-236 with S234 replaced by L (substitution scan) (S. cerevisiae) (UniProt P19145)
# T6 sequence (peptide): GVKGYGEAEFVFLFI
# T7: Gap1 peptide 222-236 with V232 replaced by F (substitution scan) (S. cerevisiae) (UniProt P19145)
# T7 sequence (peptide): GVKGYGEAEFFFSFI
# T8: Gap1 peptide 222-236 with V232 replaced by K (substitution scan) (S. cerevisiae) (UniProt P19145)
# T8 sequence (peptide): GVKGYGEAEFKFSFI
# T9: Gap1 peptide 222-…-236 (S. cerevisiae)
# T9 sequence (peptide): GVKGYGEAEFVFSFI
# B1: GST-tagged Sch9 (GST-Sch9) (enzyme, S. cerevisiae, UniProt P11792 1-824, looked up)
# chain: MMNFFTSKSSNQDTGFSSQHQHPNGQNNGNNNSSTAGNDNGYPCKLVSSGPCASSNNGALFTNFTLQTATPTTAISQDLYAMGTTGITSENALFQMKSMNNGISSVNNNNSNTPTIITTSQEETNAGNVHGDTGGNSLQNSEDDNFSSSSTTKCLLSSTSSLSINQREAAAAAYGPDTDIPRGKLEVTIIEARDLVTRSKDSQPYVVCTFESSEFISNGPESLGAINNNNNNNNNNQHNQNQHINNNNENTNPDAASQHHNNNSGWNGSQLPSIKEHLKKKPLYTHRSSSQLDQLNSCSSVTDPSKRSSNSSSGSSNGPKNDSSHPIWHHKTTFDVLGSHSELDISVYDAAHDHMFLGQVRLYPMIHNLAHASQHQWHSLKPRVIDEVVSGDILIKWTYKQTKKRHYGPQDFEVLRLLGKGTFGQVYQVKKKDTQRIYAMKVLSKKVIVKKNEIAHTIGERNILVTTASKSSPFIVGLKFSFQTPTDLYLVTDYMSGGELFWHLQKEGRFSEDRAKFYIAELVLALEHLHDNDIVYRDLKPENILLDANGNIALCDFGLSKADLKDRTNTFCGTTEYLAPELLLDETGYTKMVDFWSLGVLIFEMCCGWSPFFAENNQKMYQKIAFGKVKFPRDVLSQEGRSFVKGLLNRNPKHRLGAIDDGRELRAHPFFADIDWEALKQKKIPPPFKPHLVSETDTSNFDPEFTTASTSYMNKHQPMMTATPLSPAMQAKFAGFTFVDESAIDEHVNNNRKFLQNSYFMEPGSFIPGNPNLPPDEDVIDDDGDEDINDGFNQEKNMNNSHSQMDFDGDQHMDDEFVSGRFEI
# notes: Sch9 protein kinase of yeast, expressed from pGEX-Sch9 (pGEX-4T-1-Sch9); Plasmid from J. Bergsma; also called GST-Sch9p; source: purified from E. coli (peptide microarrays); not shown: GST, N-terminal, kept
# How the values were obtained:
# [1] = target: T1, Gap1 peptide 222-236 with F231 replaced by D (substitution scan) (S. cerevisiae); assay: peptide or protein array; PEPperCHIP substitution scan of …, 300 peptides in triplicate; 100 or 500 µg/ml GST-Sch9 or GST, 16 h at 4°C; detected with anti-GST DyLight680; both purified
# [2] = target: T2, Gap1 peptide 222-236 with F233 replaced by D (substitution scan) (S. cerevisiae); assay: as above
# [3] = target: T3, Gap1 peptide 222-236 with S234 replaced by C (substitution scan) (S. cerevisiae); assay: as above
# [4] = target: T4, Gap1 peptide 222-236 with S234 replaced by F (substitution scan) (S. cerevisiae); assay: as above
# [5] = target: T5, Gap1 peptide 222-236 with S234 replaced by I (substitution scan) (S. cerevisiae); assay: as above
# [6] = target: T6, Gap1 peptide 222-236 with S234 replaced by L (substitution scan) (S. cerevisiae); assay: as above
# [7] = target: T7, Gap1 peptide 222-236 with V232 replaced by F (substitution scan) (S. cerevisiae); assay: as above
# [8] = target: T8, Gap1 peptide 222-236 with V232 replaced by K (substitution scan) (S. cerevisiae); assay: as above
# [9] = target: T9, Gap1 peptide 222-…-236 (S. cerevisiae); assay: as above
# [10] = target: T9, Gap1 peptide 222-…-236 (S. cerevisiae); assay: peptide or protein array; PEPperCHIP Gap1 peptide microarray, 602 peptides of 15 residues with 14 overlap, in duplicate; 50 or 100 µg/ml GST-Sch9 or GST, 16 h at 4°C; detected with anti-GST DyLight680; both purified
binder,measurement,setting,value
B1,binding,[1],no binding (tested: 100 or 500 µg/ml GST-Sch9)
same,binding,[2],no binding (tested: 100 or 500 µg/ml GST-Sch9)
same,binding,[3],binds
same,binding,[4],binds
same,binding,[5],binds
same,binding,[6],binds
same,binding,[7],binds
same,binding,[8],no binding (tested: 100 or 500 µg/ml GST-Sch9)
same,binding,[9],binds
same,binding,[10],binds
